Measured data: PubChem BioAssay AID652243 (Drosophila RNAi Screening Center, 2013)
The screen tested about 24,000 reagents; shown is an unselected part of those that have a named target and a result. In the full data, 246 (1%) were called active. 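Plates not normalised; calls are printed but the firefly/Renilla ratio behind them is not deposited; fold cut for lowering reported inconsistently.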 Raw values vary from plate to plate and are shown uncorrected. Names joined by + are all predicted targets of the reagent. Not given: the amount of reagent.

Purpose: 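Fly regulators of androgen-dependent reporter output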 (primary screen)
System: Drosophila S2R+ cells
Reagent: long dsRNA against Drosophila genes
Time to read-out: 72 h (48 h, then 24 h hormone)
Conditions: synthetic androgen R1881 at 10 nM for 24 h
Detection: 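Per-well raw luminescence of the androgen-driven firefly reporter and of the Renilla control, two replicates each, without normalisation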
Reading the numbers: firefly reporter light: higher = more light from androgen-responsive reporter; Renilla control light: higher = more constitutive control signal (cell number, transfection)
Call rule: 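Hit when the log firefly-to-Renilla ratio dropped or increased by a fixed fold versus the mean of GFP or LacZ controls across duplicate plates; lowering cut given as 1.5 and as 3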
Meaning of the calls: active = hit: reporter lowered or raised; inactive = no hit

firefly reporter light, replicate 1	firefly reporter light, replicate 2	Renilla control light, replicate 1	Renilla control light, replicate 2	outcome	gene	DRSC id
1.67e5	2.28e5	5.13e5	5.61e5	inactive	atk	DRSC11418
2.80e5	1.41e5	2.21e6	2.06e6	inactive	atk	DRSC11769
2.65e5	2.73e5	8.21e5	7.98e5	inactive	atk	DRSC26412
7.39e5	6.33e5	2.48e6	1.82e6	inactive	Nos	DRSC03381
2.58e5	2.96e5	1.49e6	2.06e6	inactive	clos	DRSC06240
2.96e5	1.93e5	2.09e6	1.45e6	inactive	clos	DRSC06241
3.37e5	2.64e5	1.93e6	1.62e6	inactive	clos	DRSC06778
6.54e5	6.31e5	1.20e6	1.29e6	inactive	clos	DRSC21857
3.99e5	7.53e5	9.85e5	1.81e6	inactive	clos	DRSC22942
62827	59845	4.28e5	4.20e5	inactive	GAA1	DRSC18267
2.09e5	9.34e5	1.97e5	7.31e5	inactive	Csas	DRSC22390
6.35e5	4.55e5	1.26e6	1.15e6	inactive	CG13323 + CG13324	DRSC29000
2.57e5	2.04e5	1.61e6	1.72e6	inactive	stum	DRSC04268
1.93e5	1.41e5	1.27e6	1.06e6	inactive	stum	DRSC04270
1.14e6	1.49e6	2.78e6	2.47e6	inactive	Ube4A	DRSC02004
6.21e5	8.57e5	1.53e6	2.26e6	inactive	CG16972	DRSC02550
9.80e5	7.60e5	1.55e6	1.80e6	inactive	CG5787	DRSC02895
5.19e5	7.70e5	1.43e6	1.41e6	inactive	CG5787	DRSC28731
87442	93811	5.36e5	5.52e5	inactive	atl	DRSC16089
4.17e5	3.79e5	7.25e5	6.88e5	inactive	atl	DRSC26241
3.30e5	4.04e5	2.45e6	3.37e6	inactive	CG12546 + CG14452	DRSC11709
5.48e5	4.70e5	1.49e6	1.59e6	inactive	CG12546 + CG14452	DRSC29979
1.78e5	1.55e5	1.80e6	2.06e6	inactive	shams	DRSC16590
9.34e5	1.66e6	1.53e6	1.98e6	inactive	kon	DRSC02033
4.65e5	6.68e5	1.18e6	1.25e6	inactive	Fic	DRSC03247

Part of the list above, set out differently:
{"gene": "Nos", "DRSC id": "DRSC03381", "firefly reporter light, replicate 1": 7.39e5, "firefly reporter light, replicate 2": 6.33e5, "Renilla control light, replicate 1": 2.48e6, "Renilla control light, replicate 2": 1.82e6, "outcome": "inactive"}
{"gene": "clos", "DRSC id": "DRSC06240", "firefly reporter light, replicate 1": 2.58e5, "firefly reporter light, replicate 2": 2.96e5, "Renilla control light, replicate 1": 1.49e6, "Renilla control light, replicate 2": 2.06e6, "outcome": "inactive"}

Further reagents:
firefly reporter light, replicate 1	firefly reporter light, replicate 2	Renilla control light, replicate 1	Renilla control light, replicate 2	outcome	gene	DRSC id
2.30e5	2.47e5	4.34e6	3.37e6	inactive	CG14797	DRSC17955
1.77e5	1.45e5	1.01e6	9.71e5	inactive	l(2)SH0834	DRSC02854
76943	73014	3.90e5	3.27e5	inactive	CG12301	DRSC09875
1.87e5	2.26e5	2.74e6	2.63e6	inactive	CG17110	DRSC15173
2.26e5	1.31e5	2.80e6	1.45e6	inactive	mRpL36	DRSC10337
1.59e5	1.03e5	1.68e6	1.74e6	inactive	CG7409	DRSC10842
9.45e5	8.06e5	1.49e6	1.11e6	inactive	CG7409	DRSC30043
1.93e5	2.64e5	2.23e6	2.83e6	inactive	CG18420	DRSC01954
1.58e5	1.51e5	1.62e6	1.54e6	inactive	ATPsynGL	DRSC03027
3.00e5	6.33e5	9.90e5	1.51e6	inactive	ATPsynGL	DRSC28550
2.54e5	2.17e5	1.79e6	1.29e6	inactive	w-cup	DRSC03048
4.16e5	3.61e5	6.57e5	6.63e5	inactive	Cth	DRSC07422
1.46e6	1.07e6	2.82e6	1.90e6	inactive	CG8314	DRSC07144
24868	45508	4.04e5	4.12e5	inactive	TORIP	DRSC10104
2.23e5	2.34e5	1.94e6	1.83e6	inactive	EloC	DRSC07423
4.50e5	4.64e5	1.16e6	1.16e6	inactive	EloC	DRSC29393
